Assay results published in the supplement of paper PMC12067093, “Discovery and optimisation of a covalent ligand for TRIM25 and its application to targeted protein ubiquitination” (Chemical Science, 2025).
This is one part of the list.

Chains of the proteins cited; added tags and fusions are not shown. Lines headed by an entry give the natural chain unless they say otherwise; changes in a name come on top.
UniProt P47756, whole entry, looked up: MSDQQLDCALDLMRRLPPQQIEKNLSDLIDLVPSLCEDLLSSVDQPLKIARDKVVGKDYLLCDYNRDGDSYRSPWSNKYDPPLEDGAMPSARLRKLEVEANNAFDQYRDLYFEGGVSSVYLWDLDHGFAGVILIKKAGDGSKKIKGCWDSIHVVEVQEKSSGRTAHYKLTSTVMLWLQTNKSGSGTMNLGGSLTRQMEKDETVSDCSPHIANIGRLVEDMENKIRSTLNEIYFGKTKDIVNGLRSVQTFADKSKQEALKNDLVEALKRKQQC
UniProt P78371: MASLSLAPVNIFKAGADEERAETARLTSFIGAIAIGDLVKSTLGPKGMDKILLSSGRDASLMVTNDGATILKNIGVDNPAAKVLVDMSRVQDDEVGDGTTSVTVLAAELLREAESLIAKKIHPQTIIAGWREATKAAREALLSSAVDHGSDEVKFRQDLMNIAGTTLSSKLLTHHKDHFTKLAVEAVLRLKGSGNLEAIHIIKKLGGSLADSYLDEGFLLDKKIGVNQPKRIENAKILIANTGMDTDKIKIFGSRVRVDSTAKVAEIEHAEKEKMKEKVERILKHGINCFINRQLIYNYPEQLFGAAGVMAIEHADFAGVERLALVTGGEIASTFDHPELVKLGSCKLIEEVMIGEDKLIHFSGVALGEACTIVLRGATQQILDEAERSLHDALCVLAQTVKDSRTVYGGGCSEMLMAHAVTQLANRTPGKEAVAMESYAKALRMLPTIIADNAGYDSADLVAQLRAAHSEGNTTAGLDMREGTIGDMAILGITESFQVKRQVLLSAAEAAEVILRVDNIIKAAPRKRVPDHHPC
UniProt Q01518, whole entry, looked up: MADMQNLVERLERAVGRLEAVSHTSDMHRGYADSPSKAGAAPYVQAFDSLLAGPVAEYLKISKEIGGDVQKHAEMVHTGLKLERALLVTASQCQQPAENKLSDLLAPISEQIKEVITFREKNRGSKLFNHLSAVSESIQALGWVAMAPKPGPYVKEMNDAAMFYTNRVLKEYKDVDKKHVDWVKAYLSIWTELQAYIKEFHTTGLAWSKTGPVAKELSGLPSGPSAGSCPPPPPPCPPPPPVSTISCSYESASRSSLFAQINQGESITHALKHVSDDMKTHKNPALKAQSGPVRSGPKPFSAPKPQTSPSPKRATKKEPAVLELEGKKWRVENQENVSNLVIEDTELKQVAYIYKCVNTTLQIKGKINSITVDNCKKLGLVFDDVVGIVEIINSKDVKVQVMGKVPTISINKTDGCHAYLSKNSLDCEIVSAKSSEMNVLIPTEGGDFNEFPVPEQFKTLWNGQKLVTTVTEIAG
UniProt Q14790: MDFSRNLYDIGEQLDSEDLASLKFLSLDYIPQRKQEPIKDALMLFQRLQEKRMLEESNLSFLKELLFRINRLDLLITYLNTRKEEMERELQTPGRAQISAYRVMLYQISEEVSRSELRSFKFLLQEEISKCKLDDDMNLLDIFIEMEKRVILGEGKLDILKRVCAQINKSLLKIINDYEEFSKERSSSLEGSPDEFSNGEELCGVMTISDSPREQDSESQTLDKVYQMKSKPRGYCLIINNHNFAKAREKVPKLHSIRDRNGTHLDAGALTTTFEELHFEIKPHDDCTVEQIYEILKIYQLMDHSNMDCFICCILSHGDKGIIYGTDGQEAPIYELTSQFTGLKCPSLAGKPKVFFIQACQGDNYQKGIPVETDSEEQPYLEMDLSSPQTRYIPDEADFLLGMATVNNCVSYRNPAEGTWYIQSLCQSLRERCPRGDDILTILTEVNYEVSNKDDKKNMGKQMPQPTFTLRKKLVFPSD
UniProt P17655: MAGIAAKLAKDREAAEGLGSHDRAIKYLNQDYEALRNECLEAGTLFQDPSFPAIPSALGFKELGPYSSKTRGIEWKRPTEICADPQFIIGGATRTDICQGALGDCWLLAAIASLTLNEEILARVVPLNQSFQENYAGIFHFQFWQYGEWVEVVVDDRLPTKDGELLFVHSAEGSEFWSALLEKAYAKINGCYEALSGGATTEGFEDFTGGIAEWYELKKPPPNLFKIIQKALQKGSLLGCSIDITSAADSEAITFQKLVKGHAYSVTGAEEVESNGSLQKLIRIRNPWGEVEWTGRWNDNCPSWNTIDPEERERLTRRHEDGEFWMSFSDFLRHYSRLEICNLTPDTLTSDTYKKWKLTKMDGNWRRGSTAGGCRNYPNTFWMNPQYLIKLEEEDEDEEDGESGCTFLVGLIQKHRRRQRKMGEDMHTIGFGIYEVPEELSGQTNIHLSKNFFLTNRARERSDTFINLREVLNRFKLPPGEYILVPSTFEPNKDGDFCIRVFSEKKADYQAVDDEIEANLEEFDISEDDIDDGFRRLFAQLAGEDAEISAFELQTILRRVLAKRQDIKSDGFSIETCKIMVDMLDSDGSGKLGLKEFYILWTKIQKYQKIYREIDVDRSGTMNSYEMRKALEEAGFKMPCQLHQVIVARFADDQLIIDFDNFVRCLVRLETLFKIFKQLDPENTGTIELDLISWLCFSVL
UniProt P49662: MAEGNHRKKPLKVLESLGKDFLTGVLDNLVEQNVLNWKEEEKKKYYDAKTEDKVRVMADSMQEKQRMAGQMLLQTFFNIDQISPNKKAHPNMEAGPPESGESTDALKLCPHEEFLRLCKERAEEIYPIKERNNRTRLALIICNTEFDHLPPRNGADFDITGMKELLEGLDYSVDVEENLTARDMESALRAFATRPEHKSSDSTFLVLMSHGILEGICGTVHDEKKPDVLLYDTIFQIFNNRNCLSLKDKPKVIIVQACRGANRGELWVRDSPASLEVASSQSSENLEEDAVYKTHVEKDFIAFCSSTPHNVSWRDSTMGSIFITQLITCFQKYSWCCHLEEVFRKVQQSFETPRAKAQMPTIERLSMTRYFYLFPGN
UniProt P42574: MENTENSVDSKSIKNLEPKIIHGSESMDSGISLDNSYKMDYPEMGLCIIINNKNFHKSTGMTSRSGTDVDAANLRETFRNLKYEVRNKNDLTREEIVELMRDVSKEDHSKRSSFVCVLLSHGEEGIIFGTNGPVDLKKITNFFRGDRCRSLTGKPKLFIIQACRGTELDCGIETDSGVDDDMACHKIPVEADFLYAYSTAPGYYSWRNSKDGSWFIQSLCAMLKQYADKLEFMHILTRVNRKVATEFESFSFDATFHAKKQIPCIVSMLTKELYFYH
UniProt P42575: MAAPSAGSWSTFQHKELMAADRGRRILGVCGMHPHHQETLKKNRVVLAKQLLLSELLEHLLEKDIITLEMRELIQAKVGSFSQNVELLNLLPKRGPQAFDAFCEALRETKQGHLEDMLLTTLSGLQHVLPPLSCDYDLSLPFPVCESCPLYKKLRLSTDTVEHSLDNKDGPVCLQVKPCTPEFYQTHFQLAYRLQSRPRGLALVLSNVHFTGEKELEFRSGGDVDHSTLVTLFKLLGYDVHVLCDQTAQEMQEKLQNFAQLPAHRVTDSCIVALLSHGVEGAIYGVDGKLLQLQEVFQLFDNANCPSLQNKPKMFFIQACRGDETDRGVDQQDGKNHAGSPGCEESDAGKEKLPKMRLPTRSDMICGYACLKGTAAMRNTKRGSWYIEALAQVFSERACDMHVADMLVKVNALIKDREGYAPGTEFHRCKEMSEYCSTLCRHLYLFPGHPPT
UniProt Q7Z6B0: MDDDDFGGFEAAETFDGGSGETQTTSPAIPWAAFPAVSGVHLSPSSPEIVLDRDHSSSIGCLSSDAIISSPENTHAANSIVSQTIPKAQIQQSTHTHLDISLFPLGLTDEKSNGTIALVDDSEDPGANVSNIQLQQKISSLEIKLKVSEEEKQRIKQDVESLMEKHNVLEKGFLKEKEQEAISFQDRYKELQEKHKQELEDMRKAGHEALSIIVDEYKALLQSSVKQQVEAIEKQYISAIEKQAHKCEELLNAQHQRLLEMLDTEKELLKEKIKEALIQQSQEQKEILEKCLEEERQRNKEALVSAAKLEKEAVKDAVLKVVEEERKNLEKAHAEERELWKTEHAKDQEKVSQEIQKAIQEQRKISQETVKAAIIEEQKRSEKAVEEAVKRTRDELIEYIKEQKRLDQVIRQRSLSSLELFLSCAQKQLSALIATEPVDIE
UniProt P20248, whole entry, looked up: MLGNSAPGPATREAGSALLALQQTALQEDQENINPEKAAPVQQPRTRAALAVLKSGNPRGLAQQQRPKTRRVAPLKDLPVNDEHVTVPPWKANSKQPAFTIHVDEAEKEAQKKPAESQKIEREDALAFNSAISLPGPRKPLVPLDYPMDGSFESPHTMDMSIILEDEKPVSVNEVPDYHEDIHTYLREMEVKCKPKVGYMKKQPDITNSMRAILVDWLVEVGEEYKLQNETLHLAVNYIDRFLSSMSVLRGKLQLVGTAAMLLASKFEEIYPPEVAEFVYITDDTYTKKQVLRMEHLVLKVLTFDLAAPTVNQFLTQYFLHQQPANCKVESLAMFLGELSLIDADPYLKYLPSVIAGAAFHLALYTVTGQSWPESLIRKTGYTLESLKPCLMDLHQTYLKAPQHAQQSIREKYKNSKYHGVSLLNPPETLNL
UniProt Q9H257: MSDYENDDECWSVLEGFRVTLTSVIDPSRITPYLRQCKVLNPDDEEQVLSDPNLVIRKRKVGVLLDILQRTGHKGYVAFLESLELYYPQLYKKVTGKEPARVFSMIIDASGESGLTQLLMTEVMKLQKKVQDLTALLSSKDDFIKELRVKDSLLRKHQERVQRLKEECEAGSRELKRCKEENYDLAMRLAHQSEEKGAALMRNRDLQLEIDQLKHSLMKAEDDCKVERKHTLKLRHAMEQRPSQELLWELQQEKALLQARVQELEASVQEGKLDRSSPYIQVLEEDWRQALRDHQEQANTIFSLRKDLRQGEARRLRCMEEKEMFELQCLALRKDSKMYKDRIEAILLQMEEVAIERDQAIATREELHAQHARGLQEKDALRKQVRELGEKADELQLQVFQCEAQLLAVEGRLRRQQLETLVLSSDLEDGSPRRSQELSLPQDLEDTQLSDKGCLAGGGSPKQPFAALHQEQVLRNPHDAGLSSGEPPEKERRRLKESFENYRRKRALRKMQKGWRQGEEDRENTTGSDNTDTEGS
UniProt O43303: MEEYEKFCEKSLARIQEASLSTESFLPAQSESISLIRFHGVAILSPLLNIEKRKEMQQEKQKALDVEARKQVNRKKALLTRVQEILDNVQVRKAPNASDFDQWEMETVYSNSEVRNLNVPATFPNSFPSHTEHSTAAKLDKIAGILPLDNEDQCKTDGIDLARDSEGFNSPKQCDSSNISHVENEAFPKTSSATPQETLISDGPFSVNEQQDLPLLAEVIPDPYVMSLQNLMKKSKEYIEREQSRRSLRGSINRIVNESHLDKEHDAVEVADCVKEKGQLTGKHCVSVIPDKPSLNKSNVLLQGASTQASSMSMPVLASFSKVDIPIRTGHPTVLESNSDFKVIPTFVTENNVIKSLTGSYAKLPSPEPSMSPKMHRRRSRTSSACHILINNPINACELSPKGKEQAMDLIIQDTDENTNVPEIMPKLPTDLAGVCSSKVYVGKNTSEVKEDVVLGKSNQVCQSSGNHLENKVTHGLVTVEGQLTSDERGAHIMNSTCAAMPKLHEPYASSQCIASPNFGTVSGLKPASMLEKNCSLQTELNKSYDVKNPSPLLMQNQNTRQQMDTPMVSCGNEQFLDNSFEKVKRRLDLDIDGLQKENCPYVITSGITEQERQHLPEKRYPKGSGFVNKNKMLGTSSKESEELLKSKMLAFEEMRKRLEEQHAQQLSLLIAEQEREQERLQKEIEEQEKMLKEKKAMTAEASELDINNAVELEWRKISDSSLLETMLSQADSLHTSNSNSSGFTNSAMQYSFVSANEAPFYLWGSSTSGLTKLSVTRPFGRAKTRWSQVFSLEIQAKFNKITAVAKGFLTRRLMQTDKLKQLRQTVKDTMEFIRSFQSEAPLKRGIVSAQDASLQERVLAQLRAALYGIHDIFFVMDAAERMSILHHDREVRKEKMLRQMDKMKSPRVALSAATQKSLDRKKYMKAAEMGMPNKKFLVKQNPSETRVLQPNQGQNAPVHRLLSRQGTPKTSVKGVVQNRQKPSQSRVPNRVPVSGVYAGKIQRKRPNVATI
UniProt P04040: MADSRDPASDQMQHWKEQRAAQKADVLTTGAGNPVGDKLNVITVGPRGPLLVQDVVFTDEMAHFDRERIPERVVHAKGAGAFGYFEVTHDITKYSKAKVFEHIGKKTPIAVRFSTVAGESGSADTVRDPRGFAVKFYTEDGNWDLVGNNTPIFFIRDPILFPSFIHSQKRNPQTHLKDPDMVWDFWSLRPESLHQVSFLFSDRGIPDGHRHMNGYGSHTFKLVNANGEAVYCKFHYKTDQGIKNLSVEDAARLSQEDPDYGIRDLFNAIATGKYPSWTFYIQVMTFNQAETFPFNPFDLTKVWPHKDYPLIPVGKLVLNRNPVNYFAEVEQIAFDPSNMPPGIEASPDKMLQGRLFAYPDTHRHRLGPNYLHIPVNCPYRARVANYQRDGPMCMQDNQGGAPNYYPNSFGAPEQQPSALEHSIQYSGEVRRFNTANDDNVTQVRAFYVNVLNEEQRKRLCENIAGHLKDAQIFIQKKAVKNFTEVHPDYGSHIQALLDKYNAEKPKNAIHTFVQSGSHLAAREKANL

Compound: Cc1cc(ccc1-c1ccccc1)C(=O)N1CCCN(CC1)C(=O)CCl [compound 10]
Assay: probe-labelled cysteine peptide fold change vs DMSO (competition) (log2 fold change); higher = less target engagement (more negative = stronger competition)
Details: THP-1, incubation time: 4 h
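Further: competitive profiling in live THP-1 cells: cysteine peptides tagged with an iodoacetamide desthiobiotin (IA-DTB) probe, intensity after compound treatment relative to DMSO-treated cells.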

| Target | probe-labelled cysteine peptide fold change (10 µM) | probe-labelled cysteine peptide fold change (50 µM) |
| --- | --- | --- |
| CCAR2_Q8N163_644_PLSSGGEEEEKPRGEASEDLCEMALDPELLLLRDDGEEEFAGAK (UniProt Q8N163) | 0.363 | 0.167 |
| CAPZB_P47756_8_SDQQLDCALDLMR (UniProt P47756) | -0.139 | 0.237 |
| CAPZA2_P47755_141_EHYPNGVCTVYGK (UniProt P47755) | 0.0707 | -0.113 |
| CCT2_P78371_371_LIHFSGVALGEACTIVLR (UniProt P78371) | 0.267 | -0.0613 |
| CAPZB_P47756_62_DYLLCDYNR (UniProt P47756) | -0.223 | -0.0616 |
| CCDC97_Q96F63_17_GCIEPGPGHWGELSR (UniProt Q96F63) | -0.153 | 0.137 |
| CCT2_P78371_395_SLHDALCVLAQTVK (UniProt P78371) | 0.165 | 0.0995 |
| CAPZB_P47756_206_DETVSDCSPHIANIGR (UniProt P47756) | -0.0201 | 0.00333 |
| CASP7_P55210_186_LFFIQACR (UniProt P55210) | -0.135 | -0.227 |
| CAST_P20810-2_228_YRELLAKPIGPDDAIDALSSDFTCGSPTAAGK (UniProt P20810) | -0.219 | -0.995 |
| CCT5_P48643_302_ETGANLAICQWGFDDEANHLLLQNNLPAVR (UniProt P48643) | -0.0363 | 0.089 |
| CAP1_Q01518_93_ALLVTASQCQQPAENKLSDLLAPISEQIK (UniProt Q01518) | 0.0176 | 0.108 |
| CC2D1B_Q5T0F9_809_LENECEIREIVEVLDGR (UniProt Q5T0F9) | -0.139 | -0.00926 |
| CASP8_Q14790_236_GYCLIINNHNFAK (UniProt Q14790) | -0.0568 | -0.12 |
| CAPN1_P07384_417_ESGCSFVLALMQK (UniProt P07384) | 0.0605 | 0.351 |
| CAPN2_P17655_405_LEEEDEDEEDGESGCTFLVGLIQK (UniProt P17655) | -0.0227 | -0.0774 |
| CASP4_P49662_142_LALIICNTEFDHLPPR (UniProt P49662) | 0.0266 | -0.0433 |
| CASP3_P42574_116_RSSFVCVLLSHGEEGIIFGTNGPVDLKK (UniProt P42574) | -0.0144 | -0.0837 |

| Target | probe-labelled cysteine peptide fold change (10 µM) | probe-labelled cysteine peptide fold change (50 µM) |
| --- | --- | --- |
| CASP3_P42574_264_KQIPCIVSMLTK (UniProt P42574) | -0.0758 | -0.227 |
| CASP2_P42575_244_LLGYDVHVLCDQTAQEMQEK (UniProt P42575) | -0.000221 | 0.0104 |
| CARNMT1_Q8N4J0_115_CIDHNQEILLTIVNDCIHMFENK (UniProt Q8N4J0) | -0.0826 | 0.0874 |
| CCDC88B_A6NC98_238_EPLCLRPEAPSR (UniProt A6NC98) | -0.221 | -0.219 |
| CARM1_Q86X55_438_AGDTLSGTCLLIANKR (UniProt Q86X55) | 0.0227 | 0.0261 |
| CCDC91_Q7Z6B0_424_SLSSLELFLSCAQK (UniProt Q7Z6B0) | 0.113 | -0.107 |
| CCNA2_P20248_390_TGYTLESLKPCLMDLHQTYLK (UniProt P20248) | -0.0469 | 0.0777 |
| CARD9_Q9H257_329_EMFELQCLALR (UniProt Q9H257) | 0.00595 | 0.108 |
| CCNH_P51946_244_TCLSQLLDIMK (UniProt P51946) | 0.153 | -0.0332 |
| CCP110_O43303_174_QCDSSNISHVENEAFPK (UniProt O43303) | -0.0397 | -0.114 |
| CAPN7_Q9Y6W3_361_KVIIDDQLPVDHKGELLCSYSNNK (UniProt Q9Y6W3) | -0.0297 | -0.16 |
| CCNT2_O60583_26_CGVEADK (UniProt O60583) | -0.0575 | -0.0268 |
| CCT3_P49368_366_KIGDEYFTFITDCKDPK (UniProt P49368) | -0.035 | -0.702 |
| CASP2_P42575_305_LLQLQEVFQLFDNANCPSLQNKPK (UniProt P42575) | -0.124 | -0.293 |
| CCT5_P48643_429+440_VVYGGGAAEISCALAVSQEADKCPTLEQYAMR (UniProt P48643) | -0.277 | -0.342 |
| CAT_P04040_460_LCENIAGHLK (UniProt P04040) | 0.0902 | -0.0858 |
| CCDC25_Q86WR0_83_ANSIQGCK (UniProt Q86WR0) | -0.163 | -0.303 |

Quoted at random: 2 records from the list

| Target | probe-labelled cysteine peptide fold change (10 µM) | probe-labelled cysteine peptide fold change (50 µM) |
| --- | --- | --- |
| CAPZB_P47756_206_DETVSDCSPHIANIGR (UniProt P47756) | -0.0201 | 0.00333 |
| CASP4_P49662_142_LALIICNTEFDHLPPR (UniProt P49662) | 0.0266 | -0.0433 |
